Values from PubChem BioAssay AID1259405 (NCATS, 2018)

- Purpose: 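Mouse-designed siRNAs used to find CHO productivity engineering targets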 (primary screen)
- Cells: Chinese hamster CHO-K1 ovary cells with stable secreted eGFP expression
- Knock-down reagent: single siRNA against mouse genes, 0.8 pmol siRNA per well (2 µl of 400 nM stock)
- Duration: 3 days
- Measured: 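Percent of the per-plate non-targeting control median for intracellular GFP per well by laser scanning cytometry and for cell viability by ATP luminescence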
- Scale: GFP, % of control: higher = more GFP per well, higher productivity; viability (ATP), % of control: higher = more viable cells (more ATP)
- Active means: 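a knock-down is called active if GFP reaches 120% or more of non-targeting control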
In all, the deposit lists about 50,000 reagents; this is a part drawn at random. About 4,000 of them (8%) count as active. 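Mouse siRNA library applied to hamster cells; one well for each siRNA.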 The numbers tell different reagents against one gene apart. Reagent sequences are not shown.

no.	gene symbol	reagent no.	GFP, % of control	viability (ATP), % of control	outcome
1	Galnt17 (polypeptide N-acetylgalactosaminyltransferase 17)	1	87.3	112	inactive
2	Galnt17 (polypeptide N-acetylgalactosaminyltransferase 17)	2	95.5	139	inactive
3	Galnt17 (polypeptide N-acetylgalactosaminyltransferase 17)	3	99	122	inactive
4	Eloc (elongin C)	1	44.1	55.1	inactive
5	Eloc (elongin C)	2	68.9	97.9	inactive
6	Eloc (elongin C)	3	66.6	54.4	inactive
7	Mtmr14 (myotubularin related protein 14)	1	83.1	47.9	inactive
8	Mtmr14 (myotubularin related protein 14)	2	81.1	69.1	inactive
9	Mtmr14 (myotubularin related protein 14)	3	57.5	89.6	inactive
10	Cxadr (coxsackie virus and adenovirus receptor)	1	53.1	64.4	inactive
11	Cxadr (coxsackie virus and adenovirus receptor)	2	18.3	32.1	inactive
12	Cxadr (coxsackie virus and adenovirus receptor)	3	119	73.6	inactive
13	4930503E14Rik (RIKEN cDNA 4930503E14 gene)	1	45.1	53.6	inactive
14	4930503E14Rik (RIKEN cDNA 4930503E14 gene)	2	88.3	89.2	inactive
15	4930503E14Rik (RIKEN cDNA 4930503E14 gene)	3	106	112	inactive
16	Afap1l1 (actin filament associated protein 1-like 1)	1	61.9	52.8	inactive
17	Afap1l1 (actin filament associated protein 1-like 1)	2	45.7	41.8	inactive
18	Afap1l1 (actin filament associated protein 1-like 1)	3	90.3	87.5	inactive
19	Tanc2	1	91.3	81.6	inactive
20	Tanc2	2	92.3	77.1	inactive
21	Tanc2	3	130	135	active
22	Tnfrsf1a (tumor necrosis factor receptor superfamily, member 1a)	1	77.1	53.2	inactive
23	Tnfrsf1a (tumor necrosis factor receptor superfamily, member 1a)	2	61.8	37.9	inactive
24	Tnfrsf1a (tumor necrosis factor receptor superfamily, member 1a)	3	71.6	74.1	inactive
25	Scgb2b20 (secretoglobin, family 2B, member 20)	1	54.7	67.9	inactive
26	Scgb2b20 (secretoglobin, family 2B, member 20)	2	35.6	31.7	inactive
27	Scgb2b20 (secretoglobin, family 2B, member 20)	3	50.1	76.3	inactive
28	Tppp (tubulin polymerization promoting protein)	1	59.3	74.1	inactive
29	Tppp (tubulin polymerization promoting protein)	2	78.9	87.1	inactive
30	Tppp (tubulin polymerization promoting protein)	3	37.7	45.5	inactive
31	Sobp (sine oculis binding protein)	1	116	71.7	inactive
32	Sobp (sine oculis binding protein)	2	77.2	90.6	inactive
33	Sobp (sine oculis binding protein)	3	152	131	active
34	Vps26a (VPS26 retromer complex component A)	1	41.5	47.4	inactive
35	Vps26a (VPS26 retromer complex component A)	2	65.7	79.9	inactive
36	Vps26a (VPS26 retromer complex component A)	3	68.1	56.6	inactive
